Data from publication PMC5347793, “Transcription factor LSF-DNMT1 complex dissociation by FQI1 leads to aberrant DNA methylation and gene expression” (Oncotarget, 2016).
No constants are given. Whether binding was seen depends on the method and setting. Binding seen in cells or lysates may run through a third protein. Some results given as binding are weak or reduced against the parent protein; the word gives no strength. Values belong to the binder of their own block, whether it stands above or below them.

Sequences of proteins named here, by UniProt entry; tags and fusion partners are left off.
UniProt P26358: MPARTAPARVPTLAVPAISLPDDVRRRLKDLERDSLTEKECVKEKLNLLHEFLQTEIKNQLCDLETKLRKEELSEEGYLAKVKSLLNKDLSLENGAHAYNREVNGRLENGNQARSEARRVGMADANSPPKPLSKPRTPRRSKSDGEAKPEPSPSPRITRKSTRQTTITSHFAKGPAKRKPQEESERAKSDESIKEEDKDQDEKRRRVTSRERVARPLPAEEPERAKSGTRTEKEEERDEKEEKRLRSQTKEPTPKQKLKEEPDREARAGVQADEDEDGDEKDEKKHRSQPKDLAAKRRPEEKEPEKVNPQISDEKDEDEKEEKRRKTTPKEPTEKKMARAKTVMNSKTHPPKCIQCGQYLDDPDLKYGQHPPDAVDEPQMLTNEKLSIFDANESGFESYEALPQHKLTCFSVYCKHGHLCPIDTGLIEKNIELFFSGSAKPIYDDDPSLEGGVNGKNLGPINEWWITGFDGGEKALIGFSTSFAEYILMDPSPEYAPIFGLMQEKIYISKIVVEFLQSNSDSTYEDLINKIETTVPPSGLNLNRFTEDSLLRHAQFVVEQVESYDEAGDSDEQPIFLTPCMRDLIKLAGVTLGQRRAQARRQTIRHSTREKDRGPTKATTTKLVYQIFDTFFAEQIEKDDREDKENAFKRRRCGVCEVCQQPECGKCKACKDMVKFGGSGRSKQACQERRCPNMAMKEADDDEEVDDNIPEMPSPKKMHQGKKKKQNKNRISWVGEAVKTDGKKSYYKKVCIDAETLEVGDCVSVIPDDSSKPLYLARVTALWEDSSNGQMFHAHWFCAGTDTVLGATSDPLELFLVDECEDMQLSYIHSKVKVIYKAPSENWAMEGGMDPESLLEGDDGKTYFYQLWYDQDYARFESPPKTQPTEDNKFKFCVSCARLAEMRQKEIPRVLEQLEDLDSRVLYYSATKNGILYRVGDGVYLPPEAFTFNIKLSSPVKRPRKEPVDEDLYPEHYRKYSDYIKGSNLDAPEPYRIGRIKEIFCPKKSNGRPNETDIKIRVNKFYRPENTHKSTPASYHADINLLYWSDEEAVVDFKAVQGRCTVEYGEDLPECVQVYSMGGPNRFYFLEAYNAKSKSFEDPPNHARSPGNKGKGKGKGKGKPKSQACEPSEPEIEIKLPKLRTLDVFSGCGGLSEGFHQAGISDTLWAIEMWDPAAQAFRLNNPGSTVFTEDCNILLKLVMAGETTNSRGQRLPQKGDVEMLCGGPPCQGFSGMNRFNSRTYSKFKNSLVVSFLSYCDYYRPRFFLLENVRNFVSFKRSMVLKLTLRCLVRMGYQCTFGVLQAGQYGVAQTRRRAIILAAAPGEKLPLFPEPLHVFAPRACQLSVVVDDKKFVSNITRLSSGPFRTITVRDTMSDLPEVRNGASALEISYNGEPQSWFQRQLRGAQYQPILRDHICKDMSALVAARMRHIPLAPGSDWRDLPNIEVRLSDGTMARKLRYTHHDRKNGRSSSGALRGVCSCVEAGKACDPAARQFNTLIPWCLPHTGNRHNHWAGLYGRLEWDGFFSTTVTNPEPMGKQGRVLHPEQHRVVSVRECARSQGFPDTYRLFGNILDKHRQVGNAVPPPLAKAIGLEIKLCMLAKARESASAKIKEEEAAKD

Key:
[1] = target: T1, transcription factor LSF (Late SV40 Factor), endogenous (human (endogenous in HEK293T)) (UniProt Q12800); experiment: co-IP; endogenous proteins of HEK293T cells (nuclear extract in the results, 1 mg whole cell lysate in the methods); IP with anti-LSF or anti-DNMT1 antibody, normal IgG as control; untreated or DMSO control; western blot
T1 sequence: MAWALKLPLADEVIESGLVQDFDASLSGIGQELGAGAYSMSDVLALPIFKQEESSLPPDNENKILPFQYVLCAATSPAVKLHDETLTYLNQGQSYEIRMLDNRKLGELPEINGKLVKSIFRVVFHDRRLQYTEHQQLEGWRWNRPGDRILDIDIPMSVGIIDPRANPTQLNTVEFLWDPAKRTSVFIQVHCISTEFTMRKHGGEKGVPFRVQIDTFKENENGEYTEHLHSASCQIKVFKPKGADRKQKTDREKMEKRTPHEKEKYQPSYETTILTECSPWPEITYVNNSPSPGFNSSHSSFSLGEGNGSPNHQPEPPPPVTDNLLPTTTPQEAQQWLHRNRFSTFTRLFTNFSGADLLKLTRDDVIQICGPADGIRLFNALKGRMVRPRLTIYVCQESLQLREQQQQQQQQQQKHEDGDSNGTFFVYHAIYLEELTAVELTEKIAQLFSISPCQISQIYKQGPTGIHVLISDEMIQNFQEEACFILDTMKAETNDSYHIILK

[2] = target: maintenance DNA (cytosine-5) methyltransferase 1 (DNMT1), endogenous (human (endogenous in HEK293T)) (UniProt P26358); experiment: as above

binding [1]: binds
B1: UHRF1, endogenous (protein, UniProt Q96T88 1-793)
chain: MWIQVRTMDGRQTHTVDSLSRLTKVEELRRKIQELFHVEPGLQRLFYRGKQMEDGHTLFDYEVRLNDTIQLLVRQSLVLPHSTKERDSELSDTDSGCCLGQSESDKSSTHGEAAAETDSRPADEDMWDETELGLYKVNEYVDARDTNMGAWFEAQVVRVTRKAPSRDEPCSSTSRPALEEDVIYHVKYDDYPENGVVQMNSRDVRARARTIIKWQDLEVGQVVMLNYNPDNPKERGFWYDAEISRKRETRTARELYANVVLGDDSLNDCRIIFVDEVFKIERPGEGSPMVDNPMRRKSGPSCKHCKDDVNRLCRVCACHLCGGRQDPDKQLMCDECDMAFHIYCLDPPLSSVPSEDEWYCPECRNDASEVVLAGERLRESKKKAKMASATSSSQRDWGKGMACVGRTKECTIVPSNHYGPIPGIPVGTMWRFRVQVSESGVHRPHVAGIHGRSNDGAYSLVLAGGYEDDVDHGNFFTYTGSGGRDLSGNKRTAEQSCDQKLTNTNRALALNCFAPINDQEGAEAKDWRSGKPVRVVRNVKGGKNSKYAPAEGNRYDGIYKVVKYWPEKGKSGFLVWRYLLRRDDDEPGPWTKEGKDRIKKLGLTMQYPEGYLEALANREREKENSKREEEEQQEGGFASPRTGKGKWKRKSAGGGPSRAGSPRRTSKKTKVEPYSLTAQQSSLIREDKSNAKLWNEVLASLKDRPASGSPFQLFLSKVEETFQCICCQELVFRPITTVCQHNVCKDCLDRSFRAQVFSCPACRYDLGRSYAMQVNQPLQTVLNQLFPGYGNGR

binding [2]: binds
B2: transcription factor LSF (Late SV40 Factor), endogenous (protein, UniProt Q12800 1-502)
chain: T1 sequence
